The name of at least one read-out is uncertain.
Test system: phosphoinositide turnover
Assay: fMLP-induced phosphoinositide turnover in neutrophils (32P incorporation)
Assay type: cell-based, human
Settings: Table VI, 1 μM fMLP alone, control 100
Protocol: Amount of ^32 P in PIP and PIP2 was measured using TLC separation. The spots on TLC plates were scraped off and the radioactivity therein was measured with a Beckman scintillation counter. Each spot was compared as to intensity with the identical spot of the control sample.
After incubation, the cells were washed and resuspended in the same buffer at a concentration of 1×10^7 cells/ml. Each suspension (1 ml) then was pretreated with TMS, SPN or DMS, or equal volume of 50% ethanol, for 10 min at 37° C. Then keeping the same temperature, fMLP was added to a final concentration of 1.0 μM. Two minutes later, the reaction was terminated by adding 3.75 ml of chloroform/methanol (1:2) to each cell suspension, followed by sonication for 15 min. An additional 1.25 ml of chloroform, 1.25 ml of water and 50 μl of acetone were added and the total mixture was mixed and left overnight.
Following centrifugation of the mixture, the phospholipids were extracted by Folch's partition method, taking the lower phase from the cell lysate. […] The TLC plate was developed with control phospholipids, in a solvent comprising chloroform/methanol/4M NaOH at a ratio of 45:35:10 and containing 0.1% CDTA (trans-1,2-diaminocyclohexane-N,N,N',N'-tetraacetic acid) for 65 min at 37° C. The bands were identified by staining the control phospholipids with primuline and visualization under ultraviolet light. […]

Q: Which PIP2 labeling does the source give for `CSCC[C@H](NC=O)C(=O)N[C@@H](CC(C)C)C(=O)N[C@@H](Cc1ccccc1)C(=O)O` [fMLP, formyl-methionyl-leucyl-phenylalanine] here?
A: Its PIP2 labeling is 147 ± 32.
